At least one compound was matched to its structure with a doubt left.
System: IFN-γ producing lymphocytes
Test: Frequency of IFN-γ producing lymphocytes by ELISPOT after vaccination
Format: in vivo, C57BL/6 mice
Settings: ELISPOT of blood cells one week after the last booster; pool of 5 mice; lower than 1:20,000 not detectable

In the case of `CCCCCCCCCCCCCCCCCC[N+](C)(C)CCCCCCCCCCCCCCCCCC.[Br-]` [DDA], the “ESAT-6 specific recall response, Frequency of IFN-γ producing lymphocytes, Expt. I” value is reported as <1:20,000 and the “ESAT-6 specific recall response, Frequency of IFN-γ producing lymphocytes, Expt. II” value is reported as <1:20,000.
